The supplement of paper PMC6078165
The reference is the same well before dosing, and untreated signal decays as well.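 Labels refer to human fibroblasts, largely primary: uterine (C12385, HUF), lung (H6013), bone (Hs27A), adrenal (HADF), skin (WS1), plus mammary HMF and breast cancer-associated Hs343T. Cancer lines are basal-like or mesenchymal-like triple-negative breast cancer. The paper counts as hits responses shifting over 3x the replicate standard deviation. The tissue of the other fibroblasts is not given here.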

System: MDAMB436
Experiment: relative JC-1 red fluorescence (viability) vs pre-drug, coculture with fibroblast (fraction); higher = more viable cancer cells
Conditions: 100 µM
Method: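 JC-1 labelled TNBC cells cocultured 1:1 (1,500 cells each) with CellTrace Violet stained primary or stromal fibroblasts in 384-well plates in FluoroBrite medium, treated with one of 42 anticancer drugs at 0.1, 1, 10 or 100 uM. JC-1 red fluorescence (mitochondrial integrity in cancer cells only) was read by plate reader every 8 h for 72 h. Values are normalised to each well's pre-drug value. The stock of one drug was tenfold lower, so its dose labels may be too high.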

O=C(O)C1(C(=O)O)CCC1.[NH2-].[NH2-].[Pt+2] [Carboplatin]
relative JC-1 red fluorescence
Conditions	8 h	16 h	24 h	32 h	40 h	48 h	56 h	64 h	72 h
coculture fibroblast: C12385	0.777	0.73	0.717	0.645	0.613	0.598	0.591	0.584	0.591
coculture fibroblast: H6013	0.829	0.809	0.813	0.825	0.845	0.799	0.827	0.731	0.753
coculture fibroblast: H6019	0.769	0.724	0.716	0.646	0.623	0.625	0.602	0.599	0.591
coculture fibroblast: H6076	0.6366	0.572	0.578	0.555	0.553	0.555	0.598	0.621	0.646
coculture fibroblast: H6231	0.6325	0.627	0.671	0.619	0.606	0.591	0.606	0.613	0.607
coculture fibroblast: HADF	0.7991	0.768	0.759	0.734	0.747	0.78	0.734	0.744	0.714
coculture fibroblast: HCFa	0.794	0.768	0.75	0.722	0.724	0.762	0.716	0.738	0.706
coculture fibroblast: HCPF	0.658	0.613	0.611	0.554	0.525	0.504	0.499	0.494	0.49
coculture fibroblast: HHSteC	0.847	0.848	0.845	0.818	0.835	0.861	0.821	0.833	0.801
coculture fibroblast: HMF	0.651	0.583	0.564	0.517	0.4949	0.473	0.484	0.485	0.494
coculture fibroblast: HPFa	0.868	0.862	0.845	0.808	0.812	0.84	0.789	0.776	0.74
coculture fibroblast: HUF	0.811	0.744	0.718	0.649	0.607	0.589	0.577	0.57	0.574
coculture fibroblast: Hs5	0.6643	0.6188	0.625	0.584	0.58	0.555	0.595	0.6	0.6102
coculture fibroblast: Hs27A	0.803	0.798	0.787	0.765	0.746	0.839	0.769	0.788	0.747
coculture fibroblast: Hs343T	0.709	0.66	0.629	0.576	0.553	0.521	0.529	0.528	0.533
coculture fibroblast: WS1	0.775	0.734	0.715	0.647	0.613	0.606	0.594	0.58	0.584
